Results are given in words; binding and its absence hold for the method and conditions named. Binding seen in cells or lysates may run through a third protein. Some entries that bind do so weakly or less than the wild type. For some of these results: Where a sequence is shown, tags or fusion partners need not be part of it.

Chains of the proteins cited; added tags and fusions are not shown.
UniProt Q04207: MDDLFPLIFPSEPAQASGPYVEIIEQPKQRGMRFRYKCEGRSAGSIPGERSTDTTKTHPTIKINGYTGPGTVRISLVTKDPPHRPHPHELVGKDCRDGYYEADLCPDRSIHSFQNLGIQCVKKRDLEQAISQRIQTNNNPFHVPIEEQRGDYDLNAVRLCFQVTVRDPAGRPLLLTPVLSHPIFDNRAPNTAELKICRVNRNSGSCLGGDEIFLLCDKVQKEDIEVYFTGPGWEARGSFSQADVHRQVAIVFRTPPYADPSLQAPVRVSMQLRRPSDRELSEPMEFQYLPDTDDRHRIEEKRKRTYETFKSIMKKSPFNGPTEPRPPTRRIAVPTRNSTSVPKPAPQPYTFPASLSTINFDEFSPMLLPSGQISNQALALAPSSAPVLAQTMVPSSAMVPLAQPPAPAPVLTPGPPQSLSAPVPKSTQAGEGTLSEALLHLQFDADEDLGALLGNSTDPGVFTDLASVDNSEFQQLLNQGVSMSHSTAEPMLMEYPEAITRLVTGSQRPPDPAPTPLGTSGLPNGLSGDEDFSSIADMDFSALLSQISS

Assay [1] has as its target Myc-tagged RelB Δ52–402 (mouse) (UniProt Q04863). In words: co-IP.
The target in assay [2] is T1, Myc-tagged mouse RelB, full length (WT) (mouse) (UniProt Q04863).
T1 sequence: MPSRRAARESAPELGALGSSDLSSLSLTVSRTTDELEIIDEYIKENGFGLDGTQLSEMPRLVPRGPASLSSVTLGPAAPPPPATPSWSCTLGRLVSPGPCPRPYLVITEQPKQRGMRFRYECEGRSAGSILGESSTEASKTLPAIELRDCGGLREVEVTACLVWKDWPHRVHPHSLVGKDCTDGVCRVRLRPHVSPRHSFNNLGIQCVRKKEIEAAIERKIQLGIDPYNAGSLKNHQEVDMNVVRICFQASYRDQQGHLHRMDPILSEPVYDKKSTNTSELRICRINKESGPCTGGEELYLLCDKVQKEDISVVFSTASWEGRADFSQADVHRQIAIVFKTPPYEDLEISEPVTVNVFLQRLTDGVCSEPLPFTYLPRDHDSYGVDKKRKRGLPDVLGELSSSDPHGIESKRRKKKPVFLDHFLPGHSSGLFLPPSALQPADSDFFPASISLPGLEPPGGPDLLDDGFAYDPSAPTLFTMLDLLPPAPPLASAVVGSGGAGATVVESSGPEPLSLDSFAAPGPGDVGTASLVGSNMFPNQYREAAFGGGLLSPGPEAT
Kind of assay: co-IP.

For assay [3], the target named is RelB with deletion of the proximal nuclear localization signal (residues 388–392) (mouse) (UniProt Q04863). In words: co-IP.
Assay [4] has as its target RelA (p65) (endogenous, BV-2 microglial cells) (mouse (endogenous in BV-2)) (UniProt Q04207). In words: co-IP; whole cell lysates of BV-2 cells, untreated or treated with Tat (100nM) for 4h or 8h; immunoprecipitation with a RelA-specific antibody and Protein A/G+ agarose beads, 4°C, washed with ELB lysis buffer; immunoblot with RelB-specific antibody; densitometry normalised to precipitated RelA.

For the molecule “influenza hemagglutinin (HA)-tagged derivative of RelA (from UniProt Q04207 1-549)”, the values for the binding entry in assay [1], in assay [2] and in assay [3] were “no binding”, “binds” and “binds”, respectively.

B1: RelB (endogenous, BV-2 microglial cells) (natural protein, mouse (endogenous in BV-2), UniProt Q04863 1-558, looked up)
chain: MPSRRAARESAPELGALGSSDLSSLSLTVSRTTDELEIIDEYIKENGFGLDGTQLSEMPRLVPRGPASLSSVTLGPAAPPPPATPSWSCTLGRLVSPGPCPRPYLVITEQPKQRGMRFRYECEGRSAGSILGESSTEASKTLPAIELRDCGGLREVEVTACLVWKDWPHRVHPHSLVGKDCTDGVCRVRLRPHVSPRHSFNNLGIQCVRKKEIEAAIERKIQLGIDPYNAGSLKNHQEVDMNVVRICFQASYRDQQGHLHRMDPILSEPVYDKKSTNTSELRICRINKESGPCTGGEELYLLCDKVQKEDISVVFSTASWEGRADFSQADVHRQIAIVFKTPPYEDLEISEPVTVNVFLQRLTDGVCSEPLPFTYLPRDHDSYGVDKKRKRGLPDVLGELSSSDPHGIESKRRKKKPVFLDHFLPGHSSGLFLPPSALQPADSDFFPASISLPGLEPPGGPDLLDDGFAYDPSAPTLFTMLDLLPPAPPLASAVVGSGGAGATVVESSGPEPLSLDSFAAPGPGDVGTASLVGSNMFPNQYREAAFGGGLLSPGPEAT
notes: NF-kappa B family member RelB, endogenous in the murine microglial cell line BV-2; source: endogenous, BV-2 whole cell lysate
On to B1, for which the binding result in assay [4] was “binds”.

(Values after paper PMC2912378 (PLoS ONE, 2010).)
